Where two headings read alike, the source gives them in different places.

The test system of the assay is U87 cells. Put plainly: Reversibility (washout) cell viability assay. In kind it is cell-based. The conditions noted are these: Homo sapiens, U-87 MG.

Broadly, the IC50 is the concentration needed to halve the response being measured. Regarding `COc1cc2c(c(OC)c1OC)-c1ccc(OC)c(=O)cc1[C@@H](NC(C)=O)CC2` [colchicine, reference compound], the IC50 was found to be 13 nM (72 h, read-out: IC50 cell viability, no-washout) and 80 nM (read-out: IC50 cell viability, after washout).

These data come from PMC10887108, “Novel Brain-Penetrant, Small-Molecule Tubulin Destabilizers for the Treatment of Glioblastoma” (Biomedicines, 2024).
